These results are taken from patent publication US20110117009A1, “DRUG CONJUGATES WITH POLYGLYCEROLS” (FREIE UNIVERSITÄT BERLIN, priority 2008, published 2011).

For the test, the system named is MDA-MB 231. The test is described as follows: Cytotoxicity, luciferase readout after 72 h. The class given is cell-based. The following applies: Homo sapiens; MDA-MB 231, 72 h. The procedure:
After 72 h cells were lysed in 100 μL of luciferase assay buffer, and an aliquot of the lysate was assayed for luciferase activity.

pIC50: −log10 of the molar value.

`COc1cccc2c1C(=O)c1c(O)c3c(c(O)c1C2=O)C[C@@](O)(C(=O)CO)C[C@@H]3O[C@H]1C[C@H](N)[C@H](O)[C@H](C)O1` [Doxorubicin, doxorubicin] had a pIC50 of 6.85.

For orientation: pIC50 means the negative decadic logarithm of the IC50, by convention in mol/L.
